Drawing on PubChem BioAssay AID248 (DTP/NCI, 2004), this text covers survivor count and T/C for 17 compounds.

The test system of the experiment is L1210 leukemia ip in BDF1 mice, survival T/C. Description: NCI In Vivo Anticancer Drug Screen. Data for tumor model L1210 Leukemia (intraperitoneal) in B6D2F1 (BDF1) mice. As to conditions: T/C endpoint: mean survival time, higher T/C = longer survival.
Setting [1] is: dose: 200.0 mg/kg/injection, schedule: Q01DX009 (ip), vehicle: Klucel (hydroxypropylcellulose) (HPC).
[2] abbreviates: dose: 400.0 mg/kg/injection, schedule: Q01DX001 (ip), vehicle: Klucel (hydroxypropylcellulose) (HPC).
Setting [3] is: dose: 6.25 mg/kg/injection, schedule: Q01DX009 (ip), vehicle: saline.
Setting [4] is: dose: 12.5 mg/kg/injection, schedule: Q01DX009 (ip), vehicle: saline.
[5] abbreviates: dose: 400.0 mg/kg/injection, schedule: Q01DX009 (ip), vehicle: saline.
Where [6] appears, read: dose: 400.0 mg/kg/injection, schedule: Q04DX003 (ip), vehicle: Klucel (hydroxypropylcellulose) (HPC).

The list does not hold the whole screen: it gathers tests that were run many times, whatever their T/C, doses with no T/C, and many T/C values between a quarter and a half above the control. Further doses and runs are listed elsewhere. T/C: endpoint of the treated group in % of that of the vehicle group. Some doses have a count of surviving animals in place of a T/C: the source files T/C as zero there, which appears to mark a toxic dose or a test without result, not a measured value. Some survivor counts are full or nearly so, which does not show that the dose was tolerated: the source hardly ever lists a survival T/C far under the control, and the zero likely stands for such cases as well. Counts of survivors are from the toxicity check (mostly the fifth day) where no day follows; animals may have died later. Schedules are NCI's codes, taken here to give the interval after Q, in days (D) or hours (H), and the number of doses after X. Some schedule codes hold Z or #, which are not explained here. Some entries were tested several times; the results are listed from low to high. For survival time, this PubChem deposit counts one and a half times the control or more as active, and values a quarter to a half above the control carry no call in these data; other NCI protocols may use other cut-offs. Some T/C values carry the count of animals alive at the toxicity check (mostly the fifth day); where none is given, no animal had died by that day.

`O=C(CCCCCCCCC(=O)NCC1(c2ccccc2)CCNCC1)NCC1(c2ccccc2)CCNCC1`: the survivor count was 6 of 6 (dose: 5.0 mg/kg/injection, schedule: Q01DX Z (ip), vehicle: saline); 0 of 6 (dose: 37.5 mg/kg/injection, schedule: Q04DX003 (ip), vehicle: saline with Tween-80); 0 of 6 (dose: 75.0 mg/kg/injection, schedule: Q04DX003 (ip), vehicle: saline with Tween-80); 0 of 6 (dose: 100.0 mg/kg/injection, schedule: Q01DX Z (ip), vehicle: saline); 0 of 6 (dose: 150.0 mg/kg/injection, schedule: Q04DX003 (ip), vehicle: saline with Tween-80); 0 of 6 (dose: 300.0 mg/kg/injection, schedule: Q01DX Z (ip), vehicle: saline).
Regarding `CCCCN(C)N=Nc1n[nH]nc1C(N)=O`, the survivor count (dose: 500.0 mg/kg/injection, schedule: Q01DX001 (ip), vehicle: carboxymethylcellulose (CMC)) is 1 of 6.
In the case of `CC(=O)Nc1ccc2c(c1)OCO2`, for the setting “dose: 400.0 mg/kg/injection, schedule: Q01DX009 (ip), vehicle: saline with Tween-80”, the survivor count was 0 of 6.
For `O=CC(CCN1CCCCC1)(CCN1CCCCC1)c1cccc2ccccc12`, the survivor count reads like this: under setting [1], 0 of 6; (dose: 400.0 mg/kg/injection, schedule: Q01DX009 (ip), vehicle: Klucel (hydroxypropylcellulose) (HPC)) 0 of 6.
Turning to `CN1C(=O)C2(c3ccccc31)C1CC3C(CO1)C1C2C3(CO)C[N+]1(C)C` (centres undefined), the survivor count (dose: 400.0 mg/kg/injection, schedule: Q01DX001 (ip), vehicle: saline) is listed as 0 of 6.
Turning to `c1ccc(C2=NC(c3ccccc3)N3CC23c2ccccc2)cc1` (centres undefined), the survivor count under setting [2] is given as 3 of 3.
Consider `CCCCCCCCCC/C=N\N=C(N)N`, for which the survivor count is, setting by setting: (dose: 60.0 mg/kg/injection, schedule: Q01DX Z (ip), vehicle: other) 1 of 6; (dose: 120.0 mg/kg/injection, schedule: Q01DX Z (ip), vehicle: other) 0 of 6.
As to `OC1(c2ccccc2)c2cscc2C(O)(c2ccccc2)c2c(Cl)sc(Cl)c21` (centres undefined), the survivor count (dose: 200.0 mg/kg/injection, schedule: Q01DX001 (ip), vehicle: saline with Tween-80) was 3 of 3.
As for `ClCCCNCc1ccccc1`, the survivor count (dose: 200.0 mg/kg/injection, schedule: Q04DX003 (ip), vehicle: saline) is 2 of 6 and the survivor count (dose: 400.0 mg/kg/injection, schedule: Q04DX003 (ip), vehicle: saline) is 0 of 6.
For `CCCC[As](=O)(O)C(C)C`, the T/C (dose: 3.12 mg/kg/injection, schedule: Q01DX009 (ip), vehicle: saline) is 129 % of control; the T/C under setting [3] is 110, 111, 122 % of control [2 of 3 alive]; the T/C under setting [4] is 105, 110, 114 % of control [2 of 3 alive]; the T/C (dose: 25.0 mg/kg/injection, schedule: Q04DX002 (ip), vehicle: saline) was 125 % of control. Besides, the survivor count reads like this: under setting [3], 1 of 3; under setting [4], 1 of 3; (dose: 25.0 mg/kg/injection, schedule: Q01DX009 (ip), vehicle: saline) 1 of 3; (dose: 50.0 mg/kg/injection, schedule: Q01DX009 (ip), vehicle: saline) 0 of 3; (dose: 100.0 mg/kg/injection, schedule: Q01DX001 (ip), vehicle: saline) 3 of 6; (dose: 100.0 mg/kg/injection, schedule: Q01DX009 (ip), vehicle: saline) 0 of 3 and 0 of 6. The survivor count is listed as 0 of 6 (dose: 200.0 mg/kg/injection, schedule: Q01DX009 (ip), vehicle: saline) and 0 of 6 under setting [5].
As to `Cc1nc(S(C)(=O)=O)nc(S(C)(=O)=O)c1Cl`, the survivor count is given as 0 of 6 (dose: 25.0 mg/kg/injection, schedule: Q01DX001 (ip), vehicle: Klucel (hydroxypropylcellulose) (HPC)); 0 of 6 (dose: 50.0 mg/kg/injection, schedule: Q01DX001 (ip), vehicle: Klucel (hydroxypropylcellulose) (HPC)); 0 of 6 (dose: 100.0 mg/kg/injection, schedule: Q01DX001 (ip), vehicle: Klucel (hydroxypropylcellulose) (HPC)); 0 of 6 (dose: 200.0 mg/kg/injection, schedule: Q01DX001 (ip), vehicle: Klucel (hydroxypropylcellulose) (HPC)); 0 of 6 under setting [2].
Take `C=CCc1cn(C2CC(O)C(CO)O2)c(=O)[nH]c1=O` (centres undefined): the T/C is, setting by setting: (dose: 200.0 mg/kg/injection, schedule: Q01DX001 (ip), vehicle: saline, evaluated on day 30) 96 and 101 % of control; (dose: 200.0 mg/kg/injection, schedule: Q01DX001 (ip), vehicle: saline, run until all animals had died) 98 and 104 % of control; (dose: 400.0 mg/kg/injection, schedule: Q01DX001 (ip), vehicle: saline, evaluated on day 30) 101 and 104 % of control; (dose: 400.0 mg/kg/injection, schedule: Q01DX001 (ip), vehicle: saline, run until all animals had died) 103 and 106 % of control; under setting [5], 126 and 136 % of control; (dose: 800.0 mg/kg/injection, schedule: Q01DX009 (ip), vehicle: saline) 136 % of control. Moreover, the T/C (dose: 1600.0 mg/kg/injection, schedule: Q01DX009 (ip), vehicle: saline) is 125 % of control.
Consider `CCNC(C)(C)C(SSSC(c1ccc(Cl)cc1)C(C)(C)NCC)c1ccc(Cl)cc1` (centres undefined), for which the survivor count runs as follows: (dose: 50.0 mg/kg/injection, schedule: Q01DX009 (ip), vehicle: other) 6 of 6; under setting [1], 0 of 6; (dose: 200.0 mg/kg/injection, schedule: Q01DX009 (ip), vehicle: other) 0 of 6.
For `C=C(C)C1CCC2(C=O)CCC3(C)C(CCC4C5(C)CCC(OC6CCCCO6)C(C)(C)C5CCC43C)C12` (centres undefined), the survivor count (dose: 50.0 mg/kg/injection, schedule: Q04DX002 (ip), vehicle: saline with Tween-80) is 3 of 3.
Regarding `CCOC(=O)c1ccc(NC(=S)NC(=O)c2ccc(Cl)cc2Cl)cc1`, the survivor count (dose: 100.0 mg/kg/injection, schedule: Q01DX009 (ip), vehicle: saline with Tween-80) is 6 of 6.
Take `Cc1ccc(NC(=O)Nc2onc(C)c2C)c([N+](=O)[O-])c1`: the survivor count was 5 of 6 (dose: 200.0 mg/kg/injection, schedule: Q04DX003 (ip), vehicle: Klucel (hydroxypropylcellulose) (HPC)) and 6 of 6 under setting [6].
As for `CCOC(=O)c1ccc(OC(=O)Nc2ccc(Cl)c([N+](=O)[O-])c2)cc1`, the survivor count under setting [6] was 5 of 6.
